Measured values published in PMC9845754.
Results are given in words; binding and its absence hold for the method and conditions named. For some assays here: A result given as binding can be weak or reduced; the word gives no strength. For some assays here: Sequences can lack the tags named with a protein. For some assays here: Binding seen in cells or lysates may run through a third protein.

The chains behind the UniProt entries cited, without tags or fusion partners.
UniProt O82481: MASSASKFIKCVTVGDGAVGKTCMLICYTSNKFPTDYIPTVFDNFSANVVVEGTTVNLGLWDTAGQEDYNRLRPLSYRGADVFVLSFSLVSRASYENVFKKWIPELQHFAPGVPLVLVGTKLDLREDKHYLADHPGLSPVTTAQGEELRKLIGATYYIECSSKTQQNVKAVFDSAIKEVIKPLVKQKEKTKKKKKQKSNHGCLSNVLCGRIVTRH
UniProt Q38919: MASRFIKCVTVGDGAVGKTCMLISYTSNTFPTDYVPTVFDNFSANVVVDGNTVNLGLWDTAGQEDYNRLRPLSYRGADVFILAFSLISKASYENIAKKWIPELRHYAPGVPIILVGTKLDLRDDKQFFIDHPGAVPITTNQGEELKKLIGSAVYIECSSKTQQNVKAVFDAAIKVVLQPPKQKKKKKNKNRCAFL
UniProt Q38937: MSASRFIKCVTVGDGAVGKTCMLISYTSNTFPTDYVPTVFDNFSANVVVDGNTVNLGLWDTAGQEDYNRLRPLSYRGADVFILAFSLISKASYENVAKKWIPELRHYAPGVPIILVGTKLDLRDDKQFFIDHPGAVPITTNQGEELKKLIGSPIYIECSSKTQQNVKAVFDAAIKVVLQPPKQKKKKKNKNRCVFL
UniProt O82480: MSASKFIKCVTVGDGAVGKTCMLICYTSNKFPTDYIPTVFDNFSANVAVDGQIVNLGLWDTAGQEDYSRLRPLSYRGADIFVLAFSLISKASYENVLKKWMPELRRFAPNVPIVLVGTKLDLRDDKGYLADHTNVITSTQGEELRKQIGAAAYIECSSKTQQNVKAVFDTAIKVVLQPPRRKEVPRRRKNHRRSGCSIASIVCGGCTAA

Legend:
[1] = molecular target: T1, ICR3 (interactor of constitutively active ROP 3) fused to a half of YFP for BiFC (Arabidopsis) (UniProt Q9LSS5); test: split reporter; BiFC; YN and YC fusions transiently co-expressed in N. benthamiana leaf epidermis, confocal imaging; for the ICR-ICR pairs lambda stacks excited at 514 nm, emission 521-690 nm, unmixed for the YFP signal
T1 sequence: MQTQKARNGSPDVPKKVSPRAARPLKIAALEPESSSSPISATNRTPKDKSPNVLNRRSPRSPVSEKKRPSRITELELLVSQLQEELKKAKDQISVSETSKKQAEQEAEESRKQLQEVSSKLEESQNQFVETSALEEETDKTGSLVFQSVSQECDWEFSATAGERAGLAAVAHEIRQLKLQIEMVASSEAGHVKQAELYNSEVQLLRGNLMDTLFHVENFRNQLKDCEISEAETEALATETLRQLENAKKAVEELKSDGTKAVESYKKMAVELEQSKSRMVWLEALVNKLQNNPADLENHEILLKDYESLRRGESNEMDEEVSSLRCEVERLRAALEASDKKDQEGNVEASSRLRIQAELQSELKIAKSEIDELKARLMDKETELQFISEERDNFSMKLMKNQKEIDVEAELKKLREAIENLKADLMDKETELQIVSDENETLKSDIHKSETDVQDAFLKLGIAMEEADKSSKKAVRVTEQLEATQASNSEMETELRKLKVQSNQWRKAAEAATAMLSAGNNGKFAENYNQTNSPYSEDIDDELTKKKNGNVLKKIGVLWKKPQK

[2] = molecular target: T2, ICR5 (interactor of constitutively active ROP 5) fused to a half of YFP for BiFC (Arabidopsis) (UniProt Q8VYU8); test: as above
T2 sequence: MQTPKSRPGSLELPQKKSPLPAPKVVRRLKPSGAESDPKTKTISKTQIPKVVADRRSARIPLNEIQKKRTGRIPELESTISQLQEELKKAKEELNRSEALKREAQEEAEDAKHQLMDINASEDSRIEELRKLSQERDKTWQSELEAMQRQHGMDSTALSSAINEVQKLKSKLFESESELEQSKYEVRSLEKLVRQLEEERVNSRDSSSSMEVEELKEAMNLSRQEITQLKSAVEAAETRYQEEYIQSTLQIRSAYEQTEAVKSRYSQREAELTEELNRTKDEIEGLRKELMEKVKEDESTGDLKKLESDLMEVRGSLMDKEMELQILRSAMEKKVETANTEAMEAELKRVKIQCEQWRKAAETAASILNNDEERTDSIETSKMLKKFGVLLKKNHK

[3] = molecular target: T3, ICR3-YC (interactor of constitutively active ROP 3 fused to the C-terminal half of YFP) (Arabidopsis) (UniProt Q9LSS5); test: split reporter; BiFC with halves of YFP (YN, YC), transient expression in N. benthamiana leaf epidermis cells; confocal imaging, for some panels lambda scan 521-690 nm and linear unmixing of the YFP signal
T3 sequence: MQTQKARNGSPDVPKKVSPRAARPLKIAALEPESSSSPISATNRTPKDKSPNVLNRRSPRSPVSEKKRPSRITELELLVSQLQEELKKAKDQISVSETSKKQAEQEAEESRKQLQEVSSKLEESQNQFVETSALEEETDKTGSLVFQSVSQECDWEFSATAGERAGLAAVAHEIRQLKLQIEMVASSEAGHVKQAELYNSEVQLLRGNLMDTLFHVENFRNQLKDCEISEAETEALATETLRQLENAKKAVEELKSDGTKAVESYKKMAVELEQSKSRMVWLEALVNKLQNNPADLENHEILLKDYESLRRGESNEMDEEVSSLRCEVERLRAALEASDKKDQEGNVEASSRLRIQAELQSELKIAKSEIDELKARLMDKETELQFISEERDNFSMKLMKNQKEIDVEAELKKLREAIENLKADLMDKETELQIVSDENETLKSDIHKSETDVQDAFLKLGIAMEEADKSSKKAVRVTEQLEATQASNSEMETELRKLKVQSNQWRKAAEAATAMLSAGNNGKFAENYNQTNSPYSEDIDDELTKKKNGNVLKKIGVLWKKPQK

[4] = molecular target: T4, ICR5-YC (interactor of constitutively active ROP 5 fused to the C-terminal half of YFP) (Arabidopsis) (UniProt Q8VYU8); test: as above
T4 sequence: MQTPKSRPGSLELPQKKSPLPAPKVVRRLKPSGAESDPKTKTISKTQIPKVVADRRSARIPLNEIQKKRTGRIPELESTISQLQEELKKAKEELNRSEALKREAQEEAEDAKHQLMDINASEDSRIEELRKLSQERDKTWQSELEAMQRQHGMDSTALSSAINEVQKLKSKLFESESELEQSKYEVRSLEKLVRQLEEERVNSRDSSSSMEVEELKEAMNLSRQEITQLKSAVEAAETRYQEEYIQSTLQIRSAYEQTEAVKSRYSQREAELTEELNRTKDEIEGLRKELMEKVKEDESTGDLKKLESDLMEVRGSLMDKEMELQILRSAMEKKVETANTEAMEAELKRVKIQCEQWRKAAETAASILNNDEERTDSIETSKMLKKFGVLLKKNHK

YN-ROP11 = YN-ROP11 (UniProt O82481); test: as above
YN-ROP2 = YN-ROP2 (UniProt Q38919); test: as above
YN-ROP4 = YN-ROP4 (UniProt Q38937); test: as above
YN-ROP9 = YN-ROP9 (UniProt O82480); test: as above
[5] = molecular target: YN-rop11^CA (constitutively active ROP11) (UniProt O82481); test: as above
[6] = molecular target: taxol-stabilized microtubules polymerized from porcine brain tubulin (porcine); test: co-sedimentation; 0-10 uM ICR2-His6 with taxol-stabilized microtubules (5 uM tubulin) in PEMT pH 6.9; 100,000 g, 25°C, 15 min; supernatant and pellet on Coomassie-stained SDS-PAGE; both purified
[7] = molecular target: ICR2 (interactor of constitutively active ROP 2) fused to a half of YFP for BiFC (Arabidopsis) (UniProt Q9ZQC5); test: split reporter; BiFC; YN and YC fusions transiently co-expressed in N. benthamiana leaf epidermis, confocal imaging; for the ICR-ICR pairs lambda stacks excited at 514 nm, emission 521-690 nm, unmixed for the YFP signal
[8] = molecular target: ROP10, yeast two-hybrid fusion (pGBT ROP10); test: two-hybrid; yeast two-hybrid in S. cerevisiae PJ69-4a; pGBT9.BS and pGAD.GH fusions; growth of four decimal dilutions on -Leu -Trp -His medium with 1 mM 3AT, 28°C
[9] = molecular target: ROP6, yeast two-hybrid fusion (pGBT ROP6); test: as above

For “ICR2 (interactor of constitutively active ROP 2) fused to a half of YFP for BiFC (from UniProt Q9ZQC5)”, the binding [1] was “no binding” and the binding [2] was “no binding”.

“ICR2-YC (interactor of constitutively active ROP 2 fused to the C-terminal half of YFP) (from UniProt Q9ZQC5)” was tested, and the binding [3] was “no binding”, the binding [4] was “no binding” and the binding (YN-ROP11) was “binds”. For the same molecule, the binding (YN-ROP2) was “binds”, the binding (YN-ROP4) was “binds” and the binding (YN-ROP9) was “binds”. For the same molecule, the binding [5] was “binds”.

B1: ICR2-His6 (protein, UniProt Q9ZQC5 56-583)
chain: ADRRSPRTPVNEIQKKRTGKTPELASQISQLQEELKKAKEQLSASEALKKEAQDQAEETKQQLMEINASEDSRIDELRKLSQERDKAWQSELEAMQRQHAMDSAALSSTMNEVQKLKAQLSESENVENLRMELNETLSLVEKLRGELFDAKEGEAQAHEIVSGTEKQLEIANLTLEMLRSDGMKMSEACNSLTTELEQSKSEVRSLEQLVRQLEEEDEARGNANGDSSSVEELKEEINVARQEISQLKSAVEVTERRYHEEYIQSTLQIRTAYEQVDEVKSGYAQREAELGEELKKTKAERDSLHERLMDKEAKLRILVDENEILNSKIKEKEEVYLNLENSLNQNEPEDTGELKKLESDVMELRANLMDKEMELQSVMSQYESLRSEMETMQSEKNKAIDEALAKLGSLTEEADKSGKRAENATEQLGAAQVTNTELEAELRRLKVQCDQWRKAAEAAATMLSGGNNNNNSNGKYVERTGSLESPLRRRNVNMSPYMGETDDELSSPKKKNGSMLKKIGVLLKKSQK
With B1 the binding [6] was “binds”.

B2: ICR3 (interactor of constitutively active ROP 3) fused to a half of YFP for BiFC (protein, UniProt Q9LSS5 1-564)
chain: MQTQKARNGSPDVPKKVSPRAARPLKIAALEPESSSSPISATNRTPKDKSPNVLNRRSPRSPVSEKKRPSRITELELLVSQLQEELKKAKDQISVSETSKKQAEQEAEESRKQLQEVSSKLEESQNQFVETSALEEETDKTGSLVFQSVSQECDWEFSATAGERAGLAAVAHEIRQLKLQIEMVASSEAGHVKQAELYNSEVQLLRGNLMDTLFHVENFRNQLKDCEISEAETEALATETLRQLENAKKAVEELKSDGTKAVESYKKMAVELEQSKSRMVWLEALVNKLQNNPADLENHEILLKDYESLRRGESNEMDEEVSSLRCEVERLRAALEASDKKDQEGNVEASSRLRIQAELQSELKIAKSEIDELKARLMDKETELQFISEERDNFSMKLMKNQKEIDVEAELKKLREAIENLKADLMDKETELQIVSDENETLKSDIHKSETDVQDAFLKLGIAMEEADKSSKKAVRVTEQLEATQASNSEMETELRKLKVQSNQWRKAAEAATAMLSAGNNGKFAENYNQTNSPYSEDIDDELTKKKNGNVLKKIGVLWKKPQK
With B2 the binding [7] was “no binding”.

B3: ICR5 (interactor of constitutively active ROP 5) fused to a half of YFP for BiFC (protein, UniProt Q8VYU8 1-396)
chain: MQTPKSRPGSLELPQKKSPLPAPKVVRRLKPSGAESDPKTKTISKTQIPKVVADRRSARIPLNEIQKKRTGRIPELESTISQLQEELKKAKEELNRSEALKREAQEEAEDAKHQLMDINASEDSRIEELRKLSQERDKTWQSELEAMQRQHGMDSTALSSAINEVQKLKSKLFESESELEQSKYEVRSLEKLVRQLEEERVNSRDSSSSMEVEELKEAMNLSRQEITQLKSAVEAAETRYQEEYIQSTLQIRSAYEQTEAVKSRYSQREAELTEELNRTKDEIEGLRKELMEKVKEDESTGDLKKLESDLMEVRGSLMDKEMELQILRSAMEKKVETANTEAMEAELKRVKIQCEQWRKAAETAASILNNDEERTDSIETSKMLKKFGVLLKKNHK
With B3 the binding [7] was “no binding”.

B4: ICR2, yeast two-hybrid fusion (pGAD-ICR2) (protein, UniProt Q9ZQC5 1-583)
chain: MQTPKPRPGSLEVPQKKSPASTPKTARKLKTSESDPVSSPNTKIRTPKTQSPKVVADRRSPRTPVNEIQKKRTGKTPELASQISQLQEELKKAKEQLSASEALKKEAQDQAEETKQQLMEINASEDSRIDELRKLSQERDKAWQSELEAMQRQHAMDSAALSSTMNEVQKLKAQLSESENVENLRMELNETLSLVEKLRGELFDAKEGEAQAHEIVSGTEKQLEIANLTLEMLRSDGMKMSEACNSLTTELEQSKSEVRSLEQLVRQLEEEDEARGNANGDSSSVEELKEEINVARQEISQLKSAVEVTERRYHEEYIQSTLQIRTAYEQVDEVKSGYAQREAELGEELKKTKAERDSLHERLMDKEAKLRILVDENEILNSKIKEKEEVYLNLENSLNQNEPEDTGELKKLESDVMELRANLMDKEMELQSVMSQYESLRSEMETMQSEKNKAIDEALAKLGSLTEEADKSGKRAENATEQLGAAQVTNTELEAELRRLKVQCDQWRKAAEAAATMLSGGNNNNNSNGKYVERTGSLESPLRRRNVNMSPYMGETDDELSSPKKKNGSMLKKIGVLLKKSQK
In the case of B4, the binding [8] is reported as “binds” and the binding [9] is reported as “binds”.
